Data on one molecule can be found in PMC6639074.

These are yes or no findings as the source states them, for the method shown. In cells and extracts the contact can be indirect. Binding calls can cover weak binding; strength is not graded here.

In this experiment the target is GST-Rab11A, GTP-locked (QL) (human). Description: pull-down; GST-Rab on glutathione Sepharose beads with GppNHp or GDP (100 uM), lysate of HEK293T cells (HeLa in the legend of Figure 7E), untransfected or expressing FLAG-HPS3; 1% Triton X-100, high salt elution, immunoblot; only the target purified. On the technique in general: Immunoblotting shows a protein as a band on a membrane.

B1: RELCH/KIAA1468 (protein, UniProt Q9P260 1-1216)
chain: MAAMAPGGSGSGGGVNPFLSDSDEDDDEVAATEERRAVLRLGAGSGLDPGSAGSLSPQDPVALGSSARPGLPGEASAAAVALGGTGETPARLSIDAIAAQLLRDQYLLTALELHTELLESGRELPRLRDYFSNPGNFERQSGTPPGMGAPGVPGAAGVGGAGGREPSTASGGGQLNRAGSISTLDSLDFARYSDDGNRETDEKVAVLEFELRKAKETIQALRANLTKAAEHEVPLQERKNYKSSPEIQEPIKPLEKRALNFLVNEFLLKNNYKLTSITFSDENDDQDFELWDDVGLNIPKPPDLLQLYRDFGNHQVTGKDLVDVASGVEEDELEALTPIISNLPPTLETPQPAENSMLVQKLEDKISLLNSEKWSLMEQIRRLKSEMDFLKNEHFAIPAVCDSVQPPLDQLPHKDSEDSGQHPDVNSSDKGKNTDIHLSISDEADSTIPKENSPNSFPRREREGMPPSSLSSKKTVHFDKPNRKLSPAFHQALLSFCRMSADSRLGYEVSRIADSEKSVMLMLGRCLPHIVPNVLLAKREELIPLILCTACLHPEPKERDQLLHILFNLIKRPDDEQRQMILTGCVAFARHVGPTRVEAELLPQCWEQINHKYPERRLLVAESCGALAPYLPKEIRSSLVLSMLQQMLMEDKADLVREAVIKSLGIIMGYIDDPDKYHQGFELLLSALGDPSERVVSATHQVFLPAYAAWTTELGNLQSHLILTLLNKIEKLLREGEHGLDEHKLHMYLSALQSLIPSLFALVLQNAPFSSKAKLHGEVPQIEVTRFPRPMSPLQDVSTIIGSREQLAVLLQLYDYQLEQEGTTGWESLLWVVNQLLPQLIEIVGKINVTSTACVHEFSRFFWRLCRTFGKIFTNTKVKPQFQEILRLSEENIDSSAGNGVLTKATVPIYATGVLTCYIQEEDRKLLVGFLEDVMTLLSLSHAPLDSLKASFVELGANPAYHELLLTVLWYGVVHTSALVRCTAARMFELTLRGMSEALVDKRVAPALVTLSSDPEFSVRIATIPAFGTIMETVIQRELLERVKMQLASFLEDPQYQDQHSLHTEIIKTFGRVGPNAEPRFRDEFVIPHLHKLALVNNLQIVDSKRLDIATHLFEAYSALSCCFISEDLMVNHFLPGLRCLRTDMEHLSPEHEVILSSMIKECEQKVENKTVQEPQGSMSIAASLVSEDTKTKFLNKMGQLTTSGAMLANVFQRKK
Consider B1, for which the binding entry is recorded as “binds”.
